Measured data: PubChem BioAssay AID686943 (Drosophila RNAi Screening Center, 2013)
The deposit covers about 23,000 reagents; below is an unselected part of those with a known target gene and a result. 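Extra replicates exist only for a retested subset of genes; insulin dose and duration not given; both raised and lowered dpERK matter.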 No sequences are given here. Not given: the amount of reagent, the time to read-out.

Purpose: 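Knockdowns that increase or decrease active ERK after insulin receptor stimulation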 (primary screen)
Cell system: Drosophila S2R+ haemocyte-like cells expressing YFP-tagged ERK (Rolled)
Knock-down reagent: long dsRNA against Drosophila genes
Challenge: insulin stimulation versus unstimulated cells; dose and duration not given
Measurement: 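Antibody staining for doubly phosphorylated ERK divided by ERK-YFP signal, as plate z-scores, in insulin-treated and untreated cells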
Direction: replicate 1, z-score of dpERK with insulin and replicate 2, z-score of dpERK with insulin: higher = more active ERK per ERK-YFP after insulin; replicate 1, z-score of dpERK under basal conditions: higher = more basal active ERK per ERK-YFP; replicate 1, z-score of ERK-YFP with insulin: higher = more YFP-tagged ERK signal

no.	Target gene	DRSC id	replicate 1, z-score of dpERK with insulin	replicate 2, z-score of dpERK with insulin	replicate 1, z-score of dpERK under basal conditions	replicate 1, z-score of ERK-YFP with insulin
1	CG1946	DRSC06804	0.11	-0.06	0.01	-0.14
2	Cad74A (Cadherin 74A)	DRSC10636	-0.09	-0.33	0.55	-0.39
3	Osi2 (Osiris 2)	DRSC12174	0.35	0.59	0.36	-0.23
4	rogdi	DRSC10906	0.6	0.32	-0.18	-1.74
5	Keap1	DRSC15528	0.32	-0.21	0.15	1.19
6	CG33235	DRSC19641	0.39	0.83	0.21	0.01
7	yps (ypsilon schachtel)	DRSC11411	0.58	-0.2	1.26	0.51
8	Jhbp12 (Juvenile hormone binding protein 12)	DRSC14621	-0.37	0.49	-0.57	0.29
9	spri (sprint)	DRSC17846	-4.88	-4.36	-1.18	-0.72
10	spri (sprint)	DRSC17984	0.03	-0.66	0.18	0.32
11	spri (sprint)	DRSC17985	-0.13	1.96	0.49	0.3
12	spri (sprint)	DRSC17986	0.07	0.68	0.29	-0.34
13	spri (sprint)	DRSC17988	0.1	0.39	-0.41	0.1
14	spri (sprint)	DRSC17989	-0.8	-0.56	0.24	0.18
15	spri (sprint)	DRSC22927	0.89	1.39	-0.3	-1.01
16	bb8 (big bubble 8)	DRSC15578	0.36	0	-0.43	0.23
17	Cyp6a16Psi (retired record)	DRSC03307	0.83	0.21	0.31	-1.34
18	Gclc (Glutamate-cysteine ligase catalytic subunit)	DRSC18666	-1.34	0.62	0.77	0.29
19	rux (roughex)	DRSC18829	0.24	-0.28	-0.01	0.03
20	Cyp313a3 (Cytochrome P450 313a3)	DRSC16626	0.47	0.28	-0.71	0.13
21	ort (ora transientless)	DRSC16240	0.59	0.19	0.2	0.43
22	yl (yolkless)	DRSC20387	0.36	0.57	-0.33	0.1
23	Vps60 (Vacuolar protein sorting 60)	DRSC10610	0.03	0.97	0.24	-0.78

Look-ups from the list:
CG1946 [DRSC06804], replicate 1, z-score of dpERK under basal conditions = 0.01
For “replicate 1, z-score of ERK-YFP with insulin”, CG33235 [DRSC19641] has 0.01
